Part of at least one peptide drawing is inferred or uncertain, most often the ends. For at least one compound, name, drawing or mass did not settle the structure. Numbered stars: 1 amine (or outer) side, 2 acyl side, 3 side chain; on linkers, the order of the positions; unused ones are H or OH. Bridge positions count the residues as written; N and C are the ends. Square brackets hold non-standard residues; d marks the D form. Ends that are not written are not given here. I, II: the chains in the order shown. 1Nal = N[C@@H](Cc1cccc2ccccc12)C(=O)O; Nle = CCCC[C@H](N)C(=O)O; CO = O=C([*:1])[*:2]; βAla = NCCC(=O)O
Molecular target: T1, huEPOR (Homo sapiens, UniProt P19235)
T1 construct: expressed in transfected cells; host or cells: Ba/F3 (murine pro-B line, own knowledge) carrying huEPOR
T1 sequence (P19235 25-508): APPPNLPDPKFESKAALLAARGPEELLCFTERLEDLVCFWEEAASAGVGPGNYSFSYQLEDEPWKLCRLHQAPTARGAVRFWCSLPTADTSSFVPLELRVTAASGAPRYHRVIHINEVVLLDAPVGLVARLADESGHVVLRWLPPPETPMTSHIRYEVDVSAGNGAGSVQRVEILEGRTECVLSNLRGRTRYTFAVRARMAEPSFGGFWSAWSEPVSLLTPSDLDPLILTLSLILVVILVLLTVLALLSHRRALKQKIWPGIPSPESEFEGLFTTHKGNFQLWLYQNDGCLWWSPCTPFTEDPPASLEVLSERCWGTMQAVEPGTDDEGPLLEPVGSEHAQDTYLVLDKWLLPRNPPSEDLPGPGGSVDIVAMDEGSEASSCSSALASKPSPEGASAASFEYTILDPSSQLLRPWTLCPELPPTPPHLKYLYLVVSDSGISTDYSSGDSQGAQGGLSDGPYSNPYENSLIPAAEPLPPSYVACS
Experiment: Ba/F3-huEPOR cell proliferation assay
Type: cell-based
Details: concentration required to produce 50% of the maximal activity obtained with recombinant erythropoietin
Description: The protocol for each assay is described in Wrighton et al. (1997) Nature Biotechnology 15:1261-1265, and in U.S. Pat. Nos. 5,773,569 and 5,830,851, both to Wrighton et al. and cited earlier herein.

| Substance | EC50 [nM] |
| --- | --- |
| I: Ac-GGTYSCHFGPLT[1Nal]VCRPQGG[βAla]K-NH2 / II: Ac-GGTYSCHFGPLT[1Nal]VCRPQGG (disulfide I:6-I:15, II:6-II:15; amide I:22-II:C; C-terminus assumed) [Example 10] | 5 |
| I: GGTYSCHFGPLT[1Nal]VCRPQGG[βAla]K-NH2 / II: GGTYSCHFGPLT[1Nal]VCRPQGG (amide I:22-II:C (inferred); C-terminus assumed; cysteines drawn unpaired) [Example 2] | 6 |
| I: GGTYSCHFGPLT[1Nal]VC[Nle]PQGG[βAla]K-NH2 / II: GGTYSCHFGPLT[1Nal]VC[Nle]PQGG (disulfide I:6-I:15, II:6-II:15 (inferred); amide I:22-II:C (inferred); C-terminus assumed) [Example 9] | 2 |

Next, values leading:

| EC50 [nM] | Substance |
| --- | --- |
| 2 | I: Ac-GGTYSCHFGPLT[1Nal]VCRPQGGK-NH2 / II: Ac-GGTYSCHFGPLT[1Nal]VCRPQGGK-NH2 (disulfide I:6-I:15, II:6-II:15; linker I:21-II:21 via CO; C-terminus assumed) [Example 12] |
| 0.4 | I: GGTYSCHFGPLT[1Nal]VCRPQGG[βAla]K-NH2 / II: GGTYSCHFGPLT[1Nal]VCRPQGG (disulfide I:6-I:15, II:6-II:15 (inferred); amide I:22-II:C (inferred); C-terminus assumed) [Example 7] |

— patent publication US7459522B2 (Affymax, Inc., priority 1999, dated 2008)
